Reference: patent publication US20220202801A1, “USE OF COMPOUND IN PREPARATION OF DRUG FOR TREATING ATHEROSCLEROSIS” (GenEros Biopharma Ltd., priority 2019, published 2022)

Key:
ICAM-1 = assay: Immunohistochemistry of aortic wall, ICAM-1; format: in vivo, mice; details: 20 mg/kg gavage QD
Excerpt: (§1) Methods: SPF grade C57BL/6 ApoE −/−model mice were provided by Guangdong Medical Experimental Animal Center, laboratory animal production license No. SOCK (Guangdong) 2013-0002. Laboratory animal quality certificate number: 44007200048196). Mice were half male and half female, aged 8 to 12 weeks, and 72 animals in total. After four weeks of housing in a SPF-level animal facility, animals with less body weights were disposed. A total of 64 animals were randomly divided into 8 groups, 8 in each group, fed with 10% high-fat food, and received with different treatments. Animals were observed and administered with the medicines by gavage once daily. The body weights were measured once a week and continued for 58 days. Atorvastatin calcium tablets (abbreviated as statins) were ground and prepared with 0.5% sodium carboxymethyl cellulose solution. The test sample was dissolved in dimethyl sulfoxide solution and prepared with 30% PEG300.
(§2) After blood collection, the animals were sacrificed, and the aortic arch together with the heart and thoracic aorta were fixed with neutral formaldehyde and subject to pathological examination. […]
(§3) c) Immunohistochemistry: The thoracic aorta was sliced and detected by immunohistochemistry for the expression of CD68, intercellular adhesion molecule-1 (ICAM-1), and vascular cell adhesion Molecule-1 (VCAM-1).

ApoE knockout mice [1] = assay: Blood lipid metabolism TG, TCHO, HDL-c, LDL-c (Example 2); format: in vivo
Excerpt: Methods: A total of 130 SPF grade C57BL/6 ApoE −/− model male mice aged 8 weeks were purchased from Charles River Laboratories (Beijing, China) (animal license number: SCXK (Beijing) 2016-0001, animal qualification certificate No.: 11400700331337). After one week of acclimatization in a SPF-grade animal facility, the animals with less weights were discarded and the rest was randomly divided into 11 groups, with 8 animals in each group. Except for the healthy control group, the rest were fed with 10% high-fat food (the first day of the high-fat diet was recorded as D1). […] Animals were observed and administered by gavage once a day and the body weight were measured once a week for 56 days. […]
At the end of the experiment, the animals were euthanized by inhalation of carbon dioxide. […] The levels of total cholesterol TC, triglyceride TG, high-density lipoprotein HDL-C, and low-density lipoprotein LDL-C were measured, and the remaining serum was stored in a refrigerator at −80° C.
Before the start of the experiment, animal blood samples were analyzed for blood lipid metabolism, including conventional triglyceride (TG), total cholesterol (TCHO), high-density lipoprotein (HDL-c) and low-density lipoprotein (LDL-c). After high-fat or ordinary food feeding for 8 weeks, the blood lipid levels were measured again. […]

VCAM-1 = assay: Immunohistochemistry of aortic wall, VCAM-1; format: in vivo, mice; details: 20 mg/kg gavage QD
Excerpt: as §1, §2, §3

ApoE knockout mice [2] = assay: Four blood lipids in serum of ApoE knockout mice (Example 1); format: in vivo; details: half male and female, 20 mg/kg body weight
Excerpt: as §1, with “Atorvastatin calcium tablets (abbreviated as statins) were ground and prepared with 0.5% sodium carboxymethyl cellulose solution.” left out
At the end of the experiment, animals were anesthetized with pentobarbital sodium. Blood was collected from the orbital venous plexus, and centrifuged at 3000 r/min at a low temperature for 10 min to separate the serum. The levels of total cholesterol TC, triglyceride TG, high-density lipoprotein HDL-C, and low-density lipoprotein LDL-C were measured, and the remaining serum was stored in a refrigerator at −80° C.
Statistical analysis: Data were expressed as the mean plus or minus the standard deviation (x± s), and analyzed by SPSS21.0 statistical software. […] The level of test is α=0.05.

CD68 = assay: Immunohistochemistry of aortic wall, CD68; format: in vivo, mice; details: 20 mg/kg gavage QD
Excerpt: as §1, §2, §3

For CC(C)c1c(C(=O)Nc2ccccc2)c(-c2ccccc2)c(-c2ccc(F)cc2)n1CC[C@@H](O)C[C@@H](O)CC(=O)[O-].CC(C)c1c(C(=O)Nc2ccccc2)c(-c2ccccc2)c(-c2ccc(F)cc2)n1CC[C@@H](O)C[C@@H](O)CC(=O)[O-].[Ca+2] [Statin, Atorvastatin calcium, reference compound], the “ICAM-1 average optical density” value (ICAM-1) was 2.04 ± 1.82 ×10^−2, the “ICAM-1 average optical density” value (ICAM-1; listed as statin) was “lower than the model control group” and the “effect on high-density lipoprotein (HDL-c) level compared with the vehicle group” value (ApoE knockout mice [1]) was “increase”. For the same compound, the “effect on low-density lipoprotein (LDL-c) level compared with the vehicle group” value (ApoE knockout mice [1]) was “reduce”, the “VCAM-1 average optical density” value (VCAM-1) was 1.09 ± 0.54 ×10^−2 and the HDL-C (ApoE knockout mice [2]) was 1.68 ± 0.49 mmol/L. For the same compound, the “CD68 average optical density” value (CD68) was 1.68 ± 1.22 ×10^−2.
